The target of assay [1] is T1, GST-LZY3 CCL (Arabidopsis thaliana) (UniProt Q5XVG3).
T1 sequence: KWVKTDSDFIVLEI
Put plainly: pull-down; purified protein and GST-fusion protein mixed with glutathione sepharose 4B, 4 °C; eluates on SDS-PAGE; both purified.

Sequences of proteins named here, by UniProt entry; tags and fusion partners are left off. A change or cut given only in a name is not applied to a line headed by its entry.
UniProt Q5XVG3: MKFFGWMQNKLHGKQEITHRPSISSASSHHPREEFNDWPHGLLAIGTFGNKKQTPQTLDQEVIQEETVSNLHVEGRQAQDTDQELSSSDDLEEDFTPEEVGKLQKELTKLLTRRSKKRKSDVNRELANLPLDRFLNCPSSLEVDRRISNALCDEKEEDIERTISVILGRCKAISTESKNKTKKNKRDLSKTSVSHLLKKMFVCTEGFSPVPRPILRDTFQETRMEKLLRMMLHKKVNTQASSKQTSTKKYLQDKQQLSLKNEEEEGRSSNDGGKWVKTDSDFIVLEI

Assay [2] has as its target LZY3 (LAZY1-LIKE 3), coding region fused to the GAL4 DNA-binding domain (Arabidopsis thaliana). Kind of assay: two-hybrid; spot assay after mating (Y2HGold x Y187) of GAL4 DBD and AD fusions of full length or portions of LZY or RLD; -Leu/-Trp/-His/-Ade, 2 days at 30 °C.
Assay [3] addresses CCL domain of LZY3, yeast two-hybrid fusion (Arabidopsis thaliana). Described as above.

No constants are given. Whether binding was seen depends on the method and setting. Binding can be weak; no strength is given. Sequences can lack the tags named with a protein.

On to “RLD3 BRX domain, purified (Arabidopsis thaliana) (domain or fragment)”, for which, in assay [1], the binding entry is recorded as “binds”.

B1: BRX domain (C terminus) of RLD1, yeast two-hybrid fusion (domain or fragment, UniProt Q947D2 1023-1078)
chain: AEWIEQYEPGVYITLVALHDGTRDLRRVRFSRRRFGEHQAETWWSENREKVYEKYN
On to B1, for which the binding result in assay [2] and in assay [3] was “binds” throughout.

Values taken from article PMC6941992, “Polar recruitment of RLD by LAZY1-like protein during gravity signaling in root branch angle control” (Nature Communications, 2020).
